Test [1] addresses T1, His6-SpyTag003 (SpyTag003-Cys, His6-SpyTag003-SUMO-Cys, unlabeled).
T1 construct: also called SpyTag003 probe; peptide probe
T1 chain: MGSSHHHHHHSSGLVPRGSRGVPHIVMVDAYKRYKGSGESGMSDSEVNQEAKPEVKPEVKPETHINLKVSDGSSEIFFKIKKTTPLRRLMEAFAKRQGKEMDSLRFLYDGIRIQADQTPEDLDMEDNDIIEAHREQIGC
The test is described as follows: split-site screen 82-83, in vitro reaction, western blot.

The target of test [2] is T1, His6-SpyTag003 (SpyTag003-Cys, …). The test is described as follows: split-site screen 42-43, in vitro reaction, western blot. For orientation: A western blot detects proteins with antibodies after separation by electrophoresis.
The target is the same in test [3]. The test is described as follows: in vitro reaction overnight at 37° C., SDS-PAGE and western blot.

B1: FRB-NpuC^cage-SpyC^83-113 (FRB-NpuC^cage-SpyC^83-113-αEGFR-Myc) (other)
chain: GRVAILWHEMWHEGLEEASRLYFGERNVKGMFEVLEPLHAMMERGPQTLKETSFNQAYGRDLMEAQEWCRKYMKSGNVKDLLQAWDLYYHVFRRISGNGNGGEQEVFEYCLEDGSLIRATKDHKFMTVDGQMLPIDEIFERELDLMRVDNLPNGSGGENLYFQGENLYFQGGSGGIKIATRKYLGKQNVYDIGVERDHNFALKNGFIASNCYEVATPIEFTVNEDGQVTVDGEATEGDAHTGSTSGSDLGKKLLEAARAGQDDEVRILMANGADVNADDTWGWTPLHLAAYQGHLEIVEVLLKNGADVNAYDYIGWTPLHLAADGHLEIVEVLLKNGADVNASDYIGDTPLHLAAHNGHLEIVEVLLKHGADVNAQDKFGKTAFDISIDNGNEDLAEILQKLNEQKLISEEDL
In the case of B1, the binding result in test [1] was “no binding”.

B2: FRB-NpuC^cage-SpyC^43-113 (FRB-NpuC^cage-SpyC^43-113-αEGFR-Myc) (other)
chain: GRVAILWHEMWHEGLEEASRLYFGERNVKGMFEVLEPLHAMMERGPQTLKETSFNQAYGRDLMEAQEWCRKYMKSGNVKDLLQAWDLYYHVFRRISGNGNGGEQEVFEYCLEDGSLIRATKDHKFMTVDGQMLPIDEIFERELDLMRVDNLPNGSGGENLYFQGENLYFQGGSGGIKIATRKYLGKQNVYDIGVERDHNFALKNGFIASNCMELRDSSGKTISTWISDGHVKDFYLYPGKYTFVETAAPDGYEVATPIEFTVNEDGQVTVDGEATEGDAHTGSTSGSDLGKKLLEAARAGQDDEVRILMANGADVNADDTWGWTPLHLAAYQGHLEIVEVLLKNGADVNAYDYIGWTPLHLAADGHLEIVEVLLKNGADVNASDYIGDTPLHLAAHNGHLEIVEVLLKHGADVNAQDKFGKTAFDISIDNGNEDLAEILQKLNEQKLISEEDL
Regarding B2, the binding result in test [2] is given as “no binding”.

B3: FRB-NpuC^cage-SpyC^74-113 (FRB-NpuC^cage-SpyC^74-113-αEGFR-Myc) (other)
chain: GRVAILWHEMWHEGLEEASRLYFGERNVKGMFEVLEPLHAMMERGPQTLKETSFNQAYGRDLMEAQEWCRKYMKSGNVKDLLQAWDLYYHVFRRISGNGNGGEQEVFEYCLEDGSLIRATKDHKFMTVDGQMLPIDEIFERELDLMRVDNLPNGSGGENLYFQGENLYFQGGSGGIKIATRKYLGKQNVYDIGVERDHNFALKNGFIASNCFVETAAPDGYEVATPIEFTVNEDGQVTVDGEATEGDAHTGSTSGSDLGKKLLEAARAGQDDEVRILMANGADVNADDTWGWTPLHLAAYQGHLEIVEVLLKNGADVNAYDYIGWTPLHLAADGHLEIVEVLLKNGADVNASDYIGDTPLHLAAHNGHLEIVEVLLKHGADVNAQDKFGKTAFDISIDNGNEDLAEILQKLNEQKLISEEDL
Turning to B3, the binding result in test [3] was “no binding (tested: 1 µM fragment, 2 µM probe)”.

The values are drawn from patent US20260053882A1 (TRUSTEES OF PRINCETON UNIVERSITY, published 2026).
